No constants are given. Whether binding was seen depends on the method and setting. Some results given as binding are weak or reduced against the parent protein; the word gives no strength.
Molecular target: 227/332-CL mutant of Drosophila kinesin-1 (1-401) (Drosophila melanogaster) (UniProt P17210)
Assay: tandem affinity co-purification (Ni-NTA, then Strep-Tactin); two heads co-expressed in E. coli BL21(DE3) from pCDF-duet (His-tag) and pMAL-p2 (MBP-tag, strep tag); supernatant over Ni-NTA, eluate over Strep-Tactin; the cysteine-light pair purified similarly

Sequences of proteins named here, by UniProt entry; tags and fusion partners are left off. A change or cut given only in a name is not applied to a line headed by its entry. A line that says so, or that is headed by a name, gives the form on record, which may keep a tag or linker.
227/332-CL mutant of Drosophila kinesin-1 (1-401) (P17210, form named): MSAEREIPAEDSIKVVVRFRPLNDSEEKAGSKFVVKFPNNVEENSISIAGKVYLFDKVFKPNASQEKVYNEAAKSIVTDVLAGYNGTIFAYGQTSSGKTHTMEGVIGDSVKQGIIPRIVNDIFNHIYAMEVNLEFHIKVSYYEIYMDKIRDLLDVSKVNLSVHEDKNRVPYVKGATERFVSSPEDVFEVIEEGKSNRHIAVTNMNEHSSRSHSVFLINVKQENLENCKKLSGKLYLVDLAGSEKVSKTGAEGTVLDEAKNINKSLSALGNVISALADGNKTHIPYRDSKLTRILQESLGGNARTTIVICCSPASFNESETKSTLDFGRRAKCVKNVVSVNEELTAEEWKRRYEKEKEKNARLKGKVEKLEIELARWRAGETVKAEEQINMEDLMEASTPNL
cysteine-light (CL) mutant of Drosophila kinesin-1 (1-401) (P17210, form named): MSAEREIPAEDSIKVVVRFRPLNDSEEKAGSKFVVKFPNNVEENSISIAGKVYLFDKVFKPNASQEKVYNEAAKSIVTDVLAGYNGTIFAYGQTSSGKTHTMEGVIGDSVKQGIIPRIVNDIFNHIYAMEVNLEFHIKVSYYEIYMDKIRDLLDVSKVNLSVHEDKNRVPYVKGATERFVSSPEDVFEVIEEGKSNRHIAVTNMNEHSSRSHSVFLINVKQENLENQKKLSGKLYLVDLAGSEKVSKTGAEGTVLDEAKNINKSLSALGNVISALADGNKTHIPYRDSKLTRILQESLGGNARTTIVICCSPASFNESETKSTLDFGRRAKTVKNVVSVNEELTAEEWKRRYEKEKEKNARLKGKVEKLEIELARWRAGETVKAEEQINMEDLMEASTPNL

binding: binds
Substance: cysteine-light (CL) mutant of Drosophila kinesin-1 (1-401) (from UniProt P17210 1-401) (domain or fragment)
